Literature values, collected in patent US20230165876A1, “METHYLTHIONINIUM COMPOUNDS FOR USE IN THE TREATMENT OF COVID-19” (WisTa Laboratories Ltd., priority 2020, published 2023).
At least one structure is not confirmed: it was looked up by name or label, or the drawing left a doubt. Where a SMILES comes first, the peptide text is derived from it. The star is where a group is joined. Cbz = O=C(OCc1ccccc1)*

Columns and labels:
[1] = cited from earlier work
SARS-CoV-2 = conditions: Vero E6 cells; screen concentration 5 µM; cited from earlier work
[2] = Phase 2 dose-finding study with MTC in AD; cited from earlier work
[3] = oral MTC; cited from earlier work

For `CN(C)c1ccc2c(c1)Sc1cc(N(C)C)ccc1N2` [LMT], the redox potential [1] is given as “close to zero”.
For `CC(C)[C@H](NC(=O)OCc1ccccc1)C(=O)N[C@H](C=O)Cc1ccccc1` [MDL-28170] (Cbz-Val-Phe-aldehyde), the “inhibition of viral replication” value (SARS-CoV-2) is listed as “inhibited viral replication”.
In the case of `CN(C)c1ccc2nc3ccc(N(C)C)cc3[s+]c2c1` [MTC, methylthioninium chloride, reference compound], the minimum effective dose [2] is given as 138 mg/day and the “oral doses which appear to have anti-viral activity” value [3] is given as 100 - 236 mg/MT per day.
